PubChem BioAssay AID1159578, Peter MacCallum Cancer Centre | 2015

- Screen: 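siRNA pools altering how lymphatic endothelial cells close a scratch wound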 (primary screen)
- Cell system: human lymphatic endothelial cells
- Reagents: siRNA pool against human genes, 40 nM
- Time to read-out: 48 h after transfection
- Measurement: 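High-content imaging of dye-stained cells in a scratch assay measures filled wound area and nuclei per well; duplicate means given as ratio to mock and robust z-score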
- Direction: migration robust z-score: higher = faster migration into the scratch; nuclei per well: higher = more cells in the well
- Rule for the call: 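Migration changed when robust z exceeds 2 or falls below -2 and mean nuclei number is at least 3300; otherwise not called changed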
- Calls: active = migration changed; inactive = no migration change, or too few cells
The whole screen tested about 18,000 reagents; this is a part drawn at random. Of all reagents, about 1,030 (5.7%) got an active call. 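Inactive calls also include pools with fewer than 3300 nuclei, whose migration was not assessed.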 Raw values vary from plate to plate and are shown uncorrected. Not all columns of the deposit are shown.

LIG1 (DNA ligase 1) gave migration robust z-score 1.19; migration class with cell-count check migration z between -2 and 2; enough cells; nuclei per well, duplicate mean 4308; inactive.
Depletion of AGBL2 (AGBL carboxypeptidase 2) gave: migration robust z-score -0.44; migration class with cell-count check migration z between -2 and 2; enough cells; nuclei per well, duplicate mean 6103; inactive.
For ZFYVE19 (zinc finger FYVE-type containing 19) the deposit lists migration robust z-score -0.64; migration class with cell-count check migration z between -2 and 2; enough cells; nuclei per well, duplicate mean 5026; inactive.
Against HOMER3 (homer scaffold protein 3), the entry reads migration robust z-score -0.76; migration class with cell-count check migration z between -2 and 2; enough cells; nuclei per well, duplicate mean 5574; inactive.
Silencing of RAB32 (RAB32, member RAS oncogene family) gave: migration robust z-score -0.8; migration class with cell-count check migration z between -2 and 2; enough cells; nuclei per well, duplicate mean 5514; inactive.
Against MYCBP (MYC binding protein) the deposit lists migration robust z-score -0.67; migration class with cell-count check migration z between -2 and 2; enough cells; nuclei per well, duplicate mean 5961; inactive.
With knock-down of MOV10 (Mov10 RNA helicase), the record shows migration robust z-score -0.36; migration class with cell-count check migration z between -2 and 2; enough cells; nuclei per well, duplicate mean 4004; inactive.
With knock-down of RPRML (reprimo like) the results were migration robust z-score -0.52; migration class with cell-count check migration z between -2 and 2; enough cells; nuclei per well, duplicate mean 5045; inactive.
For IL11 (interleukin 11), the entry reads migration robust z-score 0.08; migration class with cell-count check migration z between -2 and 2; enough cells; nuclei per well, duplicate mean 5156; inactive.
Depletion of VSNL1 (visinin like 1) resulted in: migration robust z-score 0.49; migration class with cell-count check migration z between -2 and 2; enough cells; nuclei per well, duplicate mean 4329; inactive.
For WDR5 (WD repeat domain 5), the values are migration robust z-score -0.16; migration class with cell-count check migration z between -2 and 2; enough cells; nuclei per well, duplicate mean 5591; inactive.
After knock-down of HOXC13 (homeobox C13) the results were migration robust z-score -0.89; migration class with cell-count check migration z between -2 and 2; enough cells; nuclei per well, duplicate mean 6134; inactive.
Knock-down of SEZ6L (seizure related 6 homolog like) came out at: migration robust z-score -1.44; migration class with cell-count check migration z between -2 and 2; enough cells; nuclei per well, duplicate mean 4289; inactive.
With knock-down of SRP54 (signal recognition particle 54) the results were migration robust z-score 0; migration class with cell-count check migration z between -2 and 2; enough cells; nuclei per well, duplicate mean 5978; inactive.

As entered above:
Under “migration class with cell-count check”, HOXC13 (homeobox C13) is entered as migration z between -2 and 2; enough cells
Result of RAB32 (RAB32, member RAS oncogene family) under “nuclei per well, duplicate mean”: 5514
